Reference: publication PMC12435897
Results are given in words; binding and its absence hold for the method and conditions named. In cells and extracts the contact can be indirect. Some binding calls cover weakened binding; strength is not graded here. Sequences can lack the tags named with a protein.

By UniProt entry, the sequences of proteins in these tests, tags left out. Residues count along the entry.
UniProt P09341, residues 35-107: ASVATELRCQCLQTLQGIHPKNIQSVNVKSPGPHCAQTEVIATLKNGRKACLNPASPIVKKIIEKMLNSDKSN

T1: ACKR1 Gly42 variant N-terminally fused to Nanoluciferase (human) (UniProt Q16570)
T1 sequence: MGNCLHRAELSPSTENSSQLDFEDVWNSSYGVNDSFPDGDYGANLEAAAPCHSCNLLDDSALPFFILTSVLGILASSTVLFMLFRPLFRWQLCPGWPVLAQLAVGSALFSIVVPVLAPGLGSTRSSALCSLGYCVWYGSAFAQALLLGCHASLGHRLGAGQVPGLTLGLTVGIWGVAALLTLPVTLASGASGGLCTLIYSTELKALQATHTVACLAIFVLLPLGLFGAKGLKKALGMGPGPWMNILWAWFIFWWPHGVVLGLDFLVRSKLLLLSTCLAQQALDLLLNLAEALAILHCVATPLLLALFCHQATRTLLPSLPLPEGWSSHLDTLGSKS

T2: ACKR1 Asp42 variant N-terminally fused to Nanoluciferase (human) (UniProt Q16570)
T2 sequence: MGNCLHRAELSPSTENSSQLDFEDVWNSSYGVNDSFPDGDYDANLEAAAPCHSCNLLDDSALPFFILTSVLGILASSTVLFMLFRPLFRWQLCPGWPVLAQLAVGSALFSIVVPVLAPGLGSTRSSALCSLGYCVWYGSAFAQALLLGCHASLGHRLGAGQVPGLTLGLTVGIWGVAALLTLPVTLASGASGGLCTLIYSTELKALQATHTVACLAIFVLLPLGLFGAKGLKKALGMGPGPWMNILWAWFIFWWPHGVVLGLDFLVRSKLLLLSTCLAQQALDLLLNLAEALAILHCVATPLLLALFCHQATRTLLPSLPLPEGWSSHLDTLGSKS

B1: AZDye 488-CXCL11 (ligand, UniProt O14625 22-94)
chain: FPMFKRGRCLCIGPGVKAVKVADIEKASIMYPSNNCDKIEVIITLKENKGQRCLNPKSKQARLIIKKVERKNF

Columns and labels:
[1] = target: T1, ACKR1 Gly42 variant N-terminally fused to Nanoluciferase (human); assay: FRET or BRET; NanoBRET: HEK293T cells with Nanoluciferase-ACKR1 variant (1 × 10^5 cells per well) incubated 2 h on ice with AZDye 488-labelled chemokines, 0.1 nM to 1 mM as printed; coelenterazine H; three-parameter Hill fit; only the binder purified
[2] = target: T2, ACKR1 Asp42 variant N-terminally fused to Nanoluciferase (human); assay: as above

| Molecule | binding [1] | binding [2] |
| --- | --- | --- |
| AZDye 488-CXCL1 (from UniProt P09341 35-107) (ligand) | binds | binds |
| B1 | binds | binds |
